Data from patent US6921749B1 (Universita' Degli Studi di Milano, priority 1999, dated 2005).
Where no end group is shown, it is not given here.

Experiment: peptide synthesis
Conditions: whole synthesis, scale 0.1 mmoles

SQGQVQPGARIFSFDGRDVLRHPAWPQKSVWHGSDPSGRRLMESY
isolated mass: 98 mg
